In patent US20150098939A1:
Residue numbers refer to the chain shown, from its start. These are yes or no findings as the source states them, for the method shown. Some binding calls cover weakened binding; strength is not graded here. Each block holds one binder with its values, some of them ahead of it.

Chains of the proteins cited; added tags and fusions are not shown. Residues count along the entry.
UniProt Q9HCN6, residues 21-267: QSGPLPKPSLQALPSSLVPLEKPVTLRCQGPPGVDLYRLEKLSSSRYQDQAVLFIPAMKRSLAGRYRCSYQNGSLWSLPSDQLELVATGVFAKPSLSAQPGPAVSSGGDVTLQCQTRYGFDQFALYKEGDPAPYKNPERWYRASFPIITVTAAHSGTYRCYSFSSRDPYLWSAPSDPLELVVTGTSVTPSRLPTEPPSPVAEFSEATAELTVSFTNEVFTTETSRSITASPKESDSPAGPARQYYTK

Columns and labels:
[1] = target: human GPVI protein, soluble extracellular domain (D1 and D2) (human) (UniProt Q9HCN6); assay: SPR (BIAcore 2000)
[2] = target: human GPVI protein, soluble extracellular domain (D1 and D2) (human) (UniProt Q9HCN6); assay: complex formation for co-crystallisation

binding [1]: binds
B1: anti-GPVI mAb from hybridoma clone 390 (antibody, mouse IgG1, kappa, V domains shown)
VH: QVQLKESGPGLVAPSQSLSITCTVSGFSLTGYGVNWVRQPPGKGLEWLGMIWGDGSTDYNSTLKSRLSISKDNSKSQVFLKMNSLQTDDTARYYCARDLPMDYWGQGTSVTVSS
VL: DIQMTQSPSSLSASLGGKVTITCKASQDINKYIAWYQHKPGKGPSLLIHYTSTLQPGIPSRFSGSGSGRDYSFSISNLEPEDIATYYCLQYANLLTFGGGTKLEIKR
modifications: N-glycosylation site (NST) in the heavy chain variable region is occupied

binding [2]: binds
B2: Fab 390-nG (recombinant non-glycosylated Fab of clone 390) (Fab, V domains shown)
VH: B1 VH with N60Q
VL: B1 VL
